From publication PMC5225067
Changes are numbered by the printed parent chain. No constants are given. Whether binding was seen depends on the method and setting. Some entries that bind do so weakly or less than the wild type. Where a sequence is shown, tags or fusion partners need not be part of it.

Tests used:
Assay in all cases: two-hybrid; Gal4 system in mated PJ69-4 cells; quantitative GAL4 promoter-directed β-galactosidase expression; measured at 25 °C and 39 °C (heat stress); control: pBDC fusion with empty pADC
[1] = molecular target: T1, human BD-UNC45-SM, wild type (human) (UniProt Q8IWX7)
T1 sequence: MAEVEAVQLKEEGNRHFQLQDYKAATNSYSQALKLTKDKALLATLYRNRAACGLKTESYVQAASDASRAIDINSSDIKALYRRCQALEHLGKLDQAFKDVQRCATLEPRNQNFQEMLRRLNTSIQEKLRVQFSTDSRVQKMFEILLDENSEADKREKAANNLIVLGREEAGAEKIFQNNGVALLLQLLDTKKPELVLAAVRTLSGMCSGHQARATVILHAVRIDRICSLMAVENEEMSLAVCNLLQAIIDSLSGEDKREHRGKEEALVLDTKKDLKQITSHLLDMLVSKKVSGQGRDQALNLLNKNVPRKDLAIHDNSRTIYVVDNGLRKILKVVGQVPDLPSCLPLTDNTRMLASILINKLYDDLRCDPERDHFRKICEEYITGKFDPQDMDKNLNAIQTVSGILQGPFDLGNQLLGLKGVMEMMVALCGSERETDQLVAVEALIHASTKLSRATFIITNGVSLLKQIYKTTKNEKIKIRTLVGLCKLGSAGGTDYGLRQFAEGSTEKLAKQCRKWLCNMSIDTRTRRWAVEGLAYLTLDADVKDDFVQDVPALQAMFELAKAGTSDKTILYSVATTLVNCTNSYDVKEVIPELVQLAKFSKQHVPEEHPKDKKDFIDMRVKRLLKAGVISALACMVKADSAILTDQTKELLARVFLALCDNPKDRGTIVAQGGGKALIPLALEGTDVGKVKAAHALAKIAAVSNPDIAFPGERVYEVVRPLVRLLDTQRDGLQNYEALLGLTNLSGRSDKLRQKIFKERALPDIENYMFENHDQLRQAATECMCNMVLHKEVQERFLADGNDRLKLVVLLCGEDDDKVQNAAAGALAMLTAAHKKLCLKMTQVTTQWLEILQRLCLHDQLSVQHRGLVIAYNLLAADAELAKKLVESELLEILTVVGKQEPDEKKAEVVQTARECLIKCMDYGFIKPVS

[2] = molecular target: T2, She4-BD, wild type (S. cerevisiae) (UniProt P51534)
T2 sequence: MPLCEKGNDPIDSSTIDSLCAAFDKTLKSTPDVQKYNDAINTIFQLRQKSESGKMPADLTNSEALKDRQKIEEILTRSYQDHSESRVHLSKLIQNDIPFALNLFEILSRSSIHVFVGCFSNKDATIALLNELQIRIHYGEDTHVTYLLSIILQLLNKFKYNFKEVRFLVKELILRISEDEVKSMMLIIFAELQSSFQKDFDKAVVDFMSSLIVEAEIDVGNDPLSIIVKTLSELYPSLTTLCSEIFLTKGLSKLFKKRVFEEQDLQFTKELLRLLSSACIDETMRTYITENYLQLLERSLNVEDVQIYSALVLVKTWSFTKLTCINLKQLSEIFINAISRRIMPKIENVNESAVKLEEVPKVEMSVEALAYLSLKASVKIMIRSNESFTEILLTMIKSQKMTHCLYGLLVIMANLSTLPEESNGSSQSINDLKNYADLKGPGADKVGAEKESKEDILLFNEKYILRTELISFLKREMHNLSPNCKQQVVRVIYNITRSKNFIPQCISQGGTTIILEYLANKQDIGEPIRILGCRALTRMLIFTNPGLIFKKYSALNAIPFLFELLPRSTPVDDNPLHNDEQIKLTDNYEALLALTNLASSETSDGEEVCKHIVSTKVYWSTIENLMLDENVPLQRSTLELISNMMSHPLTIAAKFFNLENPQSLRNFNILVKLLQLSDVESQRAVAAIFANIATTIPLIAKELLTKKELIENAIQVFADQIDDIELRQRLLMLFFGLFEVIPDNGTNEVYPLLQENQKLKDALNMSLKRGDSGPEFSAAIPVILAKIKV

[3] = molecular target: T3, human BD-UNC45-SM (S251E) (human) (UniProt Q8IWX7)
T3 sequence: T1 sequence with S251E

Measured: binding

B1: AD-Myo5 (protein, UniProt Q04439 1-1219)
chain: MAILKRGARKKVHQEPAKRSANIKKATFDSSKKKEVGVSDLTLLSKISDEAINENLKKRFLNATIYTYIGHVLISVNPFRDLGIYTDAVMNEYKGKNRLEVPPHVFAIAESMYYNMKSYNENQCVIISGESGAGKTEAAKRIMQYIAAASSTHTESIGKIKDMVLATNPLLESFGCAKTLRNNNSSRHGKYLEIKFNNQFEPCAGNITNYLLEKQRVVSQIKNERNFHIFYQFTKGASDAYRQTFGVQKPEQYVYTAAAGCISAETIDDLQDYQETLKAMRVIGLGQEEQDQIFRMLAAILWIGNVSFIENEEGNAQVRDTSVTDFVAYLLQIDSQLLIKSLVERIMETNHGMKRGSVYHVPLNIVQADAVRDALAKAIYNNLFDWIVSRVNKSLQAFPGAEKSIGILDIYGFEIFEHNSFEQICINYVNEKLQQIFIQLTLKSEQETYEREKIQWTPIKYFDNKVVCDLIEARRPPGIFAAMNDSVATAHADSNAADQAFAQRLNLFTTNPHFDLRSNKFVIKHYAGDVTYDIDGITDKNKDQLQKDLVELIGTTTNTFLATIFPDTVDRESKRRPPTAGDKIIKSANDLVETLSKAQPSYIRTIKPNETKSPNDYDDRQVLHQIKYLGLQENVRIRRAGFAYRQVFEKFVERFYLLSPHCSYAGDYTWQGDTLDAVKYILQDSSIPQQEYQLGVTSVFIKTPETLFALEHMRDRYWHNMAARIQRAWRRFLQRRIDAATKIQRTIRERKEGNKYEKLRDYGTKVLGGRKERRSMSLLGYRAFMGDYLSCNESKSKGAYIKRQVSIKEKVIFSIHGEALHTKFGRSAQRLKKTFLLTPTTLYIVGQTLVQNAMTYTQDYKIDVRNIQAVSLTNLQDDWVAIKLASSGQPDPLINTYFKTELITHLKRLNDKIQIKIGSAIEYQKKPGKLHSVKCQINESAPKYGDIYKSSTISVRRGNPPNSQVHKKPRKKSSISSGYHASSSQATRRPVSIAAAQHVPTAPASRHSKKPAPPPPGMQNKAATRRSVPNPASTLTASQSNARPSPPTAATRATPAATPAAAAMGSGRQANIPPPPPPPPPSSKPKEPMFEAAYDFPGSGSPSELPLKKGDVIYITREEPSGWSLGKLLDGSKEGWVPTAYMKPHSGNNNIPTPPQNRDVPKPVLNSVQHDNTSANVIPAAAQASLGDGLANALAARANKMRLESDDEEANEDEEEDDW
binds: all assays above
